In paper PMC2956695:
No constants are given. Whether binding was seen depends on the method and setting. In cells and extracts the contact can be indirect. These calls come from enrichment with a bait or labelling near it, and not all partners need be listed. Tags and fused reporters may be left off the sequences shown.

Amino acid sequences for entries named in this document (tags omitted). A change or cut given only in a name is not applied to a line headed by its entry.
UniProt Q09188: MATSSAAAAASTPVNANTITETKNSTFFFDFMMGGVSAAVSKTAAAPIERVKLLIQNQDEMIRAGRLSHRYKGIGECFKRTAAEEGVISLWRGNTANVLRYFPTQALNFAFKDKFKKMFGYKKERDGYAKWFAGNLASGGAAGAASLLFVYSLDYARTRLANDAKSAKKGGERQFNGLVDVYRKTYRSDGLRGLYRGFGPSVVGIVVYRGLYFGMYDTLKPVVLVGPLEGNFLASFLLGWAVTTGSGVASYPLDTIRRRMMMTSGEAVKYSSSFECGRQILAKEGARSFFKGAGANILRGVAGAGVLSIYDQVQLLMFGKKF
UniProt O94501: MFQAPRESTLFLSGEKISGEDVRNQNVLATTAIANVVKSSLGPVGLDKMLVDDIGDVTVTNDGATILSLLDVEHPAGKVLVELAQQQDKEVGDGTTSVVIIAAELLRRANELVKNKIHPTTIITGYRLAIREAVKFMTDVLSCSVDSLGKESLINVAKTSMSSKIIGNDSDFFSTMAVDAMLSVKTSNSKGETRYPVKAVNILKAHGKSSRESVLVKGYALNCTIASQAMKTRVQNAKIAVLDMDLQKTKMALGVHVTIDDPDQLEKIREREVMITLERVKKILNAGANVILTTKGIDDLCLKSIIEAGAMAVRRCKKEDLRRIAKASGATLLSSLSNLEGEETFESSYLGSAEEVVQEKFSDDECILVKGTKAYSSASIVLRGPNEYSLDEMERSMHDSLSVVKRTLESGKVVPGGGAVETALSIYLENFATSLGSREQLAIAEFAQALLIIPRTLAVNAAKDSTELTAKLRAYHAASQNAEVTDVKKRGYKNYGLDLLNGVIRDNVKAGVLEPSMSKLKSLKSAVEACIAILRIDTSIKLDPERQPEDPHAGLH
UniProt P41887: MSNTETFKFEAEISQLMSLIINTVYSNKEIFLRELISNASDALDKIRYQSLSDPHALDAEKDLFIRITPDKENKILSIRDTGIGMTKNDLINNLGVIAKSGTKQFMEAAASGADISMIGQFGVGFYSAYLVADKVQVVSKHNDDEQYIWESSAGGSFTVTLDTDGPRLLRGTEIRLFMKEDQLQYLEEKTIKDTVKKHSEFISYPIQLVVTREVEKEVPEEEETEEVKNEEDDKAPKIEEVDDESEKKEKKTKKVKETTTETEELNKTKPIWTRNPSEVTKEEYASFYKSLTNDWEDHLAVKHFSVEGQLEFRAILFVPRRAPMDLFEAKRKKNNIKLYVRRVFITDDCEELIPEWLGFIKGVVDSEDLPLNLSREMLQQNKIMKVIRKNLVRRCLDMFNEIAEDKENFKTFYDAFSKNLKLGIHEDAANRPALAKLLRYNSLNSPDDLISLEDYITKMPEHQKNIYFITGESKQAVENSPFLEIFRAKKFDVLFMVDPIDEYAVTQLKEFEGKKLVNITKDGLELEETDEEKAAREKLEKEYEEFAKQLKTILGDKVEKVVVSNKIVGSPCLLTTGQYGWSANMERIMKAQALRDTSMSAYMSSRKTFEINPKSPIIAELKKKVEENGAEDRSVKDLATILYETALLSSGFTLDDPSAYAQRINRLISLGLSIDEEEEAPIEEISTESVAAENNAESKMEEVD
UniProt P05219: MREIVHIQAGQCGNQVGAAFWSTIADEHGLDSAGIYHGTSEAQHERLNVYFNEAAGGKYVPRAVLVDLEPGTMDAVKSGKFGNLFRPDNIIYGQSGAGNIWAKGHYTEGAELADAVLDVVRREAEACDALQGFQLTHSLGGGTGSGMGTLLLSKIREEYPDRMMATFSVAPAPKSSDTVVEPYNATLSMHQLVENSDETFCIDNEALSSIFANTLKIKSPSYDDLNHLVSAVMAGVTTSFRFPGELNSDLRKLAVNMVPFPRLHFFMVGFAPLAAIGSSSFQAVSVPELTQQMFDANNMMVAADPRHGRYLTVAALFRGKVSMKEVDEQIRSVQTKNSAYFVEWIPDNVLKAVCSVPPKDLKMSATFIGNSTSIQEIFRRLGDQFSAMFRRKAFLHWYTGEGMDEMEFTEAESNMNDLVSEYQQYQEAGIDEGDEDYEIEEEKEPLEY
UniProt Q9Y7X4: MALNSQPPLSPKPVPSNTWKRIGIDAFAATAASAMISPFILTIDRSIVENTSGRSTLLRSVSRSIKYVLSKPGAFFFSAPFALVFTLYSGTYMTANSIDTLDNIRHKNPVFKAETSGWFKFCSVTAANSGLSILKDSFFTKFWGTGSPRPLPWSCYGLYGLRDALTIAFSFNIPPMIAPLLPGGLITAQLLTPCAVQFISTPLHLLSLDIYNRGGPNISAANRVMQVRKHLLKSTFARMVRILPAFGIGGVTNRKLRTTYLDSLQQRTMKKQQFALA
UniProt Q10265: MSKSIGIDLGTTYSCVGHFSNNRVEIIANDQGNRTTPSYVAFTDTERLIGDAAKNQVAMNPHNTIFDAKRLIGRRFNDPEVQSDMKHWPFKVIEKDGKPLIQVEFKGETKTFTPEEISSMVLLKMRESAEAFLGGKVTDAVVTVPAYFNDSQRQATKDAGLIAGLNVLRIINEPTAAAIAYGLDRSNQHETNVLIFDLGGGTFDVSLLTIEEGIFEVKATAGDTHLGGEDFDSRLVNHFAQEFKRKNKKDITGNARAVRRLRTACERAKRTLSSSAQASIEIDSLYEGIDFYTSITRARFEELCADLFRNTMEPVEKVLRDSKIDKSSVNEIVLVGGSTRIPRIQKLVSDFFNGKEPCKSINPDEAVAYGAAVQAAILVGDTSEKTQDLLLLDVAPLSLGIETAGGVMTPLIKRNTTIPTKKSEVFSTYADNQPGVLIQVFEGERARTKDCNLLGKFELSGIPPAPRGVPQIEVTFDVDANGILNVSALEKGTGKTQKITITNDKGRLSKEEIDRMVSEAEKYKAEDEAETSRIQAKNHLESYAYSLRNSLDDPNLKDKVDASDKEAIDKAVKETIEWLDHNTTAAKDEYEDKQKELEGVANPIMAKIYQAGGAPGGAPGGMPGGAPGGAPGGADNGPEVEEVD
UniProt P31411: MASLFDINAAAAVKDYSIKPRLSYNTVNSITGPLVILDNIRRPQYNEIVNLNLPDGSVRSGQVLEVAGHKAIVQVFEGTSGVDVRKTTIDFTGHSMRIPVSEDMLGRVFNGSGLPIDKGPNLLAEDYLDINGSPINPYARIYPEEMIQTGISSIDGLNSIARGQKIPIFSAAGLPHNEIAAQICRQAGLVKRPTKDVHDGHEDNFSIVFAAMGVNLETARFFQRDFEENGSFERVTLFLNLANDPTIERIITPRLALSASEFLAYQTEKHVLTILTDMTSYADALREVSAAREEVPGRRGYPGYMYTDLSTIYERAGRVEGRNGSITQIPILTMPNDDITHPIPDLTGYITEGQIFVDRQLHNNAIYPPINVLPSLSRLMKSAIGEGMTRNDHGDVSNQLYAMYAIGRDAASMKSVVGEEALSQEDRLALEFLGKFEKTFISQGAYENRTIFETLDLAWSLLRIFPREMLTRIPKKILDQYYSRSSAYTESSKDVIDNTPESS
UniProt P87315: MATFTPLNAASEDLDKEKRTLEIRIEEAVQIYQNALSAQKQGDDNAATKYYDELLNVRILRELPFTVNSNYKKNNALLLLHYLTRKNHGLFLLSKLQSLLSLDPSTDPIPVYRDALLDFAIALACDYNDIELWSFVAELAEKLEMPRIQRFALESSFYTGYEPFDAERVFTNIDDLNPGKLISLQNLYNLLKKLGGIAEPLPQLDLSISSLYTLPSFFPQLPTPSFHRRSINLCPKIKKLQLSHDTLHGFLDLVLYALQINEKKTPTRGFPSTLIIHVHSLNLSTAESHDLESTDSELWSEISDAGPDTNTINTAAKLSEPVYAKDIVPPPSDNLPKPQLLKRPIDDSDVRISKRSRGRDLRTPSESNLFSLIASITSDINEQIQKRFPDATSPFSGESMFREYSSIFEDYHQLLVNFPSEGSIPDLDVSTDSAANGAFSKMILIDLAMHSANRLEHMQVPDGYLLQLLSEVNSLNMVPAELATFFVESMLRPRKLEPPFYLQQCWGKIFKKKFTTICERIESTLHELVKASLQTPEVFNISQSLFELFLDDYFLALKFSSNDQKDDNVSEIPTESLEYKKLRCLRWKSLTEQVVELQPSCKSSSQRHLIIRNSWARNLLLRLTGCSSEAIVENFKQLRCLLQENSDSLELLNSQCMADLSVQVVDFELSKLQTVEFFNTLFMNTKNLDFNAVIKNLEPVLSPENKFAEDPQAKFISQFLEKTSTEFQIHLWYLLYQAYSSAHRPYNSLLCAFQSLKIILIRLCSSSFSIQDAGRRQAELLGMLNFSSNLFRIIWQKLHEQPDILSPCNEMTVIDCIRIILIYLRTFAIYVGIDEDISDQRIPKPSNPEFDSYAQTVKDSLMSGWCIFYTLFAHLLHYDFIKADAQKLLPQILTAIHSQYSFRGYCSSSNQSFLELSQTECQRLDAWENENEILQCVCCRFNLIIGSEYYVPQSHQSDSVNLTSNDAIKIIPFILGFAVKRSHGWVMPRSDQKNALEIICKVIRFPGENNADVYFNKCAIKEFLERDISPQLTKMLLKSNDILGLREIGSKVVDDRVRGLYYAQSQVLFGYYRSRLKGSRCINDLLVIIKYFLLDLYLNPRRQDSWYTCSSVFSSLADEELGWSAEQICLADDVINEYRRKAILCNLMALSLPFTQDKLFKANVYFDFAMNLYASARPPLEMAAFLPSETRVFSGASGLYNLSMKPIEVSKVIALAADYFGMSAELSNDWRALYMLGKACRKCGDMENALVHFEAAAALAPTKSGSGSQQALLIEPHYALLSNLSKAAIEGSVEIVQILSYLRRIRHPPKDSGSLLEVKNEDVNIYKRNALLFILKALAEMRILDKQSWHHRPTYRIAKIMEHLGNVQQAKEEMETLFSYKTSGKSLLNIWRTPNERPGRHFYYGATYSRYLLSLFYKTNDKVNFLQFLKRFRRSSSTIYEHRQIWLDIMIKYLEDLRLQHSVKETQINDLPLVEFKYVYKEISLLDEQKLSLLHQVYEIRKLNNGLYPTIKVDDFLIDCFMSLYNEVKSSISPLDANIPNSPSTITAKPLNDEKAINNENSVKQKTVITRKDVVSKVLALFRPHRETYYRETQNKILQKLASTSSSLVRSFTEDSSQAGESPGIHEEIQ
UniProt P42656: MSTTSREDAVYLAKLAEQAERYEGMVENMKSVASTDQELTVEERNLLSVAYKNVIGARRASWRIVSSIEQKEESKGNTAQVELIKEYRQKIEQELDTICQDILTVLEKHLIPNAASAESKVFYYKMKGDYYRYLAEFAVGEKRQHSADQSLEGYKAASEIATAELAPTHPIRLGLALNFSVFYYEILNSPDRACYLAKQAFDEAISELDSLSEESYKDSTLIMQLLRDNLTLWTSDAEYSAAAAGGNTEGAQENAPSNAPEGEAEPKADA
UniProt Q9C0X6: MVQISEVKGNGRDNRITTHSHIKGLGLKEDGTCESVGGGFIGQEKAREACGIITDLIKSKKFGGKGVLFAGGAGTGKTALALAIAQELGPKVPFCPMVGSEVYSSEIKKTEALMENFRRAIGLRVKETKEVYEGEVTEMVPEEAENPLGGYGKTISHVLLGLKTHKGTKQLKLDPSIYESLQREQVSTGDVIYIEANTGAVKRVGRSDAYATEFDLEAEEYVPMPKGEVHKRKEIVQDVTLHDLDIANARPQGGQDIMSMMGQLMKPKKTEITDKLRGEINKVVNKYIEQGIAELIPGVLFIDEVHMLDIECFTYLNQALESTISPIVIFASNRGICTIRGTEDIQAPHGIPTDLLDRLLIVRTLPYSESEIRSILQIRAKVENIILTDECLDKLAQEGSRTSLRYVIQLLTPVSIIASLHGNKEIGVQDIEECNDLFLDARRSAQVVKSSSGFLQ
UniProt P04689: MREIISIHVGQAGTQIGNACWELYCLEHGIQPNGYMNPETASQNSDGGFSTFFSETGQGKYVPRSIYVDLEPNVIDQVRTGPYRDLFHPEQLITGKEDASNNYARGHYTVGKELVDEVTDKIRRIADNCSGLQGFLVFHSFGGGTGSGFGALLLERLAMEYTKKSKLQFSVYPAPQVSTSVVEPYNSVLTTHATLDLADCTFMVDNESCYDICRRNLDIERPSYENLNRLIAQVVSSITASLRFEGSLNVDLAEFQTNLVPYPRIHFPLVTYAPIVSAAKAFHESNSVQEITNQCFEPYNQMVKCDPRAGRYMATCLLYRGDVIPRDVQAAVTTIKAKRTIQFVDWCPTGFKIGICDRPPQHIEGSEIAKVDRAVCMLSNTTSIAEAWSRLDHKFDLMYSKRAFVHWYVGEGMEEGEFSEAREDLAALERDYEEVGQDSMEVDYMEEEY

Target: T1, Slm9-3XFLAG (S. pombe) (UniProt O74309)
T1 sequence: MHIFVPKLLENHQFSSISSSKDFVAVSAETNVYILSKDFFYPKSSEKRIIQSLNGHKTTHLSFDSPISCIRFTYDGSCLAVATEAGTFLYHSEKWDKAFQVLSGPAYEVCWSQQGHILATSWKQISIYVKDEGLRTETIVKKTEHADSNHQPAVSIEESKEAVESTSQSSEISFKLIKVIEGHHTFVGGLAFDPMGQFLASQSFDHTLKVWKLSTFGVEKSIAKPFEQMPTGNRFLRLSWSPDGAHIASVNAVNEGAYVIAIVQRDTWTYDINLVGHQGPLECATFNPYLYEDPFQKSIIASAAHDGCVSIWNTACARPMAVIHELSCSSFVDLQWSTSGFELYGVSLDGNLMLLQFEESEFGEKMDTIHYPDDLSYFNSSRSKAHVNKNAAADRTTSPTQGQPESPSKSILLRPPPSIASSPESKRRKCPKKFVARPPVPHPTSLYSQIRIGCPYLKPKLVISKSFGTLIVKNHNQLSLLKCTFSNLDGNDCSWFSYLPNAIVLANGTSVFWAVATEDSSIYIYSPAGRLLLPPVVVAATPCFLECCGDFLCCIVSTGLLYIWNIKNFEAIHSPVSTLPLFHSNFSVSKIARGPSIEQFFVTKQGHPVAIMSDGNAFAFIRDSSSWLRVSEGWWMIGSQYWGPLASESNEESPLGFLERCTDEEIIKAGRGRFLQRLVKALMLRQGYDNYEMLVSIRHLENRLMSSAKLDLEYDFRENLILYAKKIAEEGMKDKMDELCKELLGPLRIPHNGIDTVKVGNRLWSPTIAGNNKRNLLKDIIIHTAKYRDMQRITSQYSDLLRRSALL
Assay: affinity purification with mass spectrometry; extracts from 5 g of cells expressing Slm9-FLAG, Dynabeads coupled to anti-FLAG M2 antibody for 15 mins, Benzonase treatment, on-bead tryptic digestion, LC-MS/MS; listed proteins found in at least two independent purifications and absent from four control purifications from untagged cells

| Substance | binding |
| --- | --- |
| Anc1, adenine nucleotide carrier (from UniProt Q09188 1-322) | binds |
| Cct1, chaperonin-containing T-complex alpha subunit (from UniProt O94501 1-556) | binds |
| Hsp90 chaperone (from UniProt P41887 1-704) | binds |
| Nda3, tubulin beta (from UniProt P05219 1-448) | binds |
| Rpt2, 19S proteasome regulatory subunit (S. pombe) | binds |
| SPBC365.16, sequence orphan (from UniProt Q9Y7X4) | binds |
| Ssa1, Hsp70 protein (from UniProt Q10265 1-644) | binds |
| Vma2, V-type ATPase V1 subunit B (from UniProt P31411 1-503) | binds |

The remaining lines, values ahead:

| binding | Substance |
| --- | --- |
| binds | Cdc48, AAA family ATPase (from UniProt Q9P3A7 1-809) |
| binds | Hip3, HIRA interacting protein 3 (from UniProt P87315 1-1630) |
| binds | Lys4, homocitrate synthase (S. pombe) |
| binds | Rad24, 14-3-3 protein (from UniProt P42656 1-270) |
| binds | Rpt5, 19S proteasome regulatory subunit (S. pombe) |
| binds | Rvb1, AAA family ATPase Rvb1 (from UniProt Q9C0X6 1-456) |
| binds | Tub1, tubulin alpha 2 (from UniProt P04689 1-449) |
| binds | Ura1, carbamoyl-phosphate synthase (from UniProt Q09794 1-2244) |
